Results published in PubChem BioAssay AID1508600 (Functional Genomics Laboratory (NCATS/FGL), 2020).
Among all 53,000 sequences or so, about 3,700 (7%) were called active.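 Rule for the calls: active = gene knockdowns whose robust z-score for IL-1 alpha signal is at least 2 or at most -2, so actives lie on both sides; inactive = the rest.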 Some of the results follow.

assay: Components of the Cytosolic LPS Sensing Pathway: Gene Identification via Genome-wide siRNA Screen; settings: RAW264.7 macrophages, IL-1a HTRF, actives lie on both sides, screened at 100 nM (by protocol), cells primed 5 h with Pam3CSK4 first;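 note: robust z of the log signal after scaling to non-targeting control siRNA wells of the plate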
Procedure, shortened: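 Three distinct siRNAs per gene were tested singly at 100 nM in RAW264.7 macrophages. Following Pam3CSK4 priming and 24 hour LipidA transfection, IL-1a secretion was read by HTRF.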

Row | Sequence | z-score
1 | GGAAGUGCUGAAGGUGUACTT against Spire2 | active: 2.38
2 | GGAAUUGACUGUGUUAAGATT against Zfr | inactive: -1.16
3 | GGUGAAUUUACUCCUGAAATT against Asxl2 | inactive: 0.267
4 | GGUGGAAAUGGGAGAAUUUTT against Sparc | inactive: 0.59
5 | GGUUCUGUCCGCUUUUUGGTT against Coasy | inactive: 0.119
6 | GUGUCUCUGGCUGUUCUGATT against Atp5o | inactive: 1.14
7 | CCAGUUACUAGUAAUACUCTT against Mcm3ap | inactive: -0.0482
8 | GCAUGGAUCCCUUUUCGAUTT against Tgfbr1 | inactive: -0.35
9 | CGCACGAGAAGACCUCUUUTT against Fam71b | inactive: 1.4
10 | GGGUUUGACUACAAGACUUTT against Mat2a | inactive: 0.521
11 | GGAGUGAGACAAGUGUAUGTT against Sprr1a | inactive: -0.0345
12 | GGGCUAUGGUUUUAUCGAATT against Puf60 | inactive: 0.0423
13 | AGUGUAAGAGCCUGUUUAUTT against Xlr | inactive: 0.474
14 | GCAACGCAACAGCAUUCCUTT against Psmg1 | inactive: 1.34
15 | GCUUACCAUGAAAAUAUUGTT against Kcnip1 | inactive: -0.495
16 | GCAAUGGGUUGUAAAUUUATT against Fndc3a | inactive: -0.0948
17 | GGACAUCCAUUCAAGGCCUTT against Rtn3 | inactive: -0.941
18 | GGACCACUACAUCAUAUACTT against Lcn4 | inactive: -1.17
19 | CCCUGGGUUCUGAUCUUAATT against Cd207 | inactive: 1.64
20 | GGUUUACACUGACUAUGUGTT against Cdkl2 | inactive: -0.78
21 | GUUUAACUACAACAAUGAGTT against Dcpp1 | inactive: 1.23
22 | GCCUUAUAGGGAGAUCUUUTT against Tsnaxip1 | inactive: -1.48

Row | Sequence | z-score
23 | GGUGAUGUGCCCAUGACAGTT against Ap1m2 | inactive: 0.455
24 | GGAUUGCAAAUGGUUUAAUTT against Chchd2 | inactive: 1.19
25 | GUUGAUCGUGCAGAUCAAGTT against Diras1 | inactive: -0.338
26 | GGUAAACGAUGUACAGUUGTT against Notch2 | active: 2.6
27 | GGGUUAUACCAAGUCCAUUTT against Mapk1 | inactive: -0.959
28 | GGGAAAUUUCUCUACAUCUTT against Npas1 | active: 2.2
29 | GCCGUUAUCUGGACUUUACTT against Zpbp2 | inactive: -1.98
30 | GGAAGUUUACCAGUCUAUCTT against Pik3c2a | inactive: 1.4
31 | GGCUUCAUGAGUAGGAUUATT against Olfr943 | inactive: -0.636
32 | GGAACAGGAUACGUACGCUTT against Acat1 | inactive: 1.31
33 | GGAUGAGUCUUUCUAGUUATT against Nipa1 | inactive: -0.337
34 | GGAACCCUGAACUUGAACGTT against Heg1 | inactive: -1.46
35 | CCUUCAAUGAAAUAAGCACTT against Olfr1155 | inactive: 0.137
36 | GCAAUUACAGAUUAAGUCUTT against Zfp869 | inactive: -0.757
37 | GGUGCUCAUUUUAUUGAGATT against Agmo | inactive: -0.875
38 | GCCUAGCAGUGCCAGGAAATT against Epn2 | inactive: -0.169
39 | GCCACGACACGAUGACAUATT against Plcxd1 | inactive: 0.918
40 | GUGCAUGCAGUGUUGUUUUTT against Magea5 | inactive: 0.711
41 | GGGAUCAAUUUUGAAGAAUTT against Jmjd4 | inactive: -0.398
42 | GGUAAUUGCUGGCUUUAAUTT against Pfdn2 | inactive: 0.359
43 | GGAGGAGAUGAUAAAGAUUTT against Glyr1 | inactive: -0.987
44 | CCGUUGUUUACCUUGUGGCTT against Zdhhc20 | inactive: -1.36

A second format for some results above.
Row,Sequence,z-score
32,GGAACAGGAUACGUACGCUTT against Acat1,inactive: 1.31
33,GGAUGAGUCUUUCUAGUUATT against Nipa1,inactive: -0.337
34,GGAACCCUGAACUUGAACGTT against Heg1,inactive: -1.46

Next part:

Row | Sequence | z-score
45 | GCGCAAGGAAGAUGCCCAUTT against Usp17lb | inactive: 0.339
46 | CCAAGAAGCAUGCAUGUAUTT against Resf1 | inactive: -0.217
47 | GGUCGUUAAAAAAGAUGUGTT against 2810004N23Rik | inactive: -0.433
48 | GGUAUUGGUGCAAUUGUCCTT against Olfr891 | inactive: -0.839
49 | CCUGGACCAAAAUUUUGUGTT against Cyp2j5 | inactive: 0.606
50 | GGACUUGAAUGAUAAGUUCTT against Cyp1a1 | inactive: 0.23
51 | GGACUUUGAGAACUUUUAUTT against Sptlc3 | inactive: -1.55
52 | GGACAUUAUCACUUUGGAATT against Casp2 | inactive: -0.923
53 | GGCUGGAAGCGUAAUUCACTT against Trim36 | inactive: 0.427
54 | CCAAGAUUCAUAAGAAGGCTT against Tas2r131 | inactive: 0.646
55 | GGAACUUCAGAGUAAACCUTT against H2-T23 | inactive: 0.096
56 | CCAUCGACUGUUUCAUCCUTT against Olfr987 | inactive: -0.915
57 | CGCAAAGGAGGCUUUACUCTT against Foxred1 | inactive: 1.52
58 | GUCAGAUCUCAGAAUCAUGTT against Ercc6l2 | active: -2.27
59 | GCAGCACAGUACUAUCUCGTT against Ttc4 | inactive: -0.339
60 | GCUGGAGAUCUAAAAACAGTT against Mphosph10 | inactive: 1.54
61 | GCAUCAAUUGUCAGGAAAUTT against Rev3l | inactive: 0.807
62 | GUUCAGACAGAAACCCAGUTT against Fxyd3 | inactive: 1.87
63 | GCUUAUUCCCAGGAGACCATT against Dmrtc2 | inactive: -0.764
64 | GCCGAGAAUGAAGUUAGAATT against Mybl1 | inactive: 0.778
65 | GCUCAGAGGUGUAUUCAUUTT against Igf2bp2 | inactive: -0.3
66 | GGACCUGGAUGUGUCCUAUTT against Lrfn4 | inactive: 0.0714

Row | Sequence | z-score
67 | GGAACCAGAAGAAUCAUUGTT against Casp4 | inactive: -1.43
68 | CCAAGUACAAAUGGUGUGATT against Vdac2 | inactive: -1.78
69 | GGAAUAUCACCAAACCAAATT against 2310057J18Rik | inactive: -1.08
70 | CCAGGAAGUGUUGAUGUGCTT against Gal | inactive: -1.75
71 | GGAAAAAAUCAAGAGUGAATT against Fam50a | inactive: -0.157
72 | GCCAGGAACCCUUUUAAUCTT against Cyb5r2 | inactive: -0.746
73 | CGACAACACAGUUAUUAUUTT against Pld1 | inactive: 0.338
74 | GCUCUAUGGAGACCUAAAGTT against Sdha | inactive: -0.378
75 | GGAACUCACCCUCAGCUUGTT against Tmem260 | inactive: 0.313
76 | GCAGAUGAAUCCAUUCUGATT against Ppp4r4 | inactive: -1.58
77 | GGAUCAAUGGUGUCUUUGUTT against Pdzk1 | active: -2.2
78 | GGCAGAUGUGUUUGCUUUUTT against Pbk | active: 3.51
79 | GGUCCUGAAGAAAUCCGAUTT against Clybl | inactive: -0.489
80 | GGGACAUAUUGUUUCCCUUTT against Tmco5b | inactive: 0.777
81 | GGAAAUAAAGUGAGUUUUGTT against Etaa1 | active: 4.95
82 | GGACACUGUGAUGUGAGACTT against Mier2 | inactive: -0.0346
83 | GGUCUAUUCUGUUGAGUAATT against Glud1 | inactive: -0.641
84 | CCUUUACCGUAUCAGCGAGTT against Rassf6 | inactive: -0.747
85 | GGGCUCCUUCCUUGAAAAGTT against Dclre1c | inactive: 0.365
86 | GCUAGAUGCAAAAUAUUCATT against Lbr | inactive: -1.98
87 | GGAGUUCAAGCAGAACAUUTT against Tpd52 | inactive: -0.643
88 | GUAGACCGAAACCACUUCCTT against Alyref2 | inactive: -0.669

Single values from above.
Entry for GUUGAUCGUGCAGAUCAAGTT against Diras1 under z-score: inactive: -0.338
Entry for GGGUUUGACUACAAGACUUTT against Mat2a under z-score: inactive: 0.521
Entry for GCUAGAUGCAAAAUAUUCATT against Lbr under z-score: inactive: -1.98
Entry for GUCAGAUCUCAGAAUCAUGTT against Ercc6l2 under z-score: active: -2.27

(next part)

Row | Sequence | z-score
89 | GGACAAGUGUCAGAUAUCATT against Asah2 | active: -2.02
90 | GCAGAGCUCUGUUAAGAAGTT against Pbp2 | inactive: -0.31
91 | GCCUGACGGCACGUAUGUATT against Acox1 | inactive: 0.527
92 | GCAGAGCGGGAUUUCAUUCTT against Sh3glb2 | inactive: -1.23
93 | GGAAGAGAGGGUGAAUAUGTT against Tmem41b | active: -2.56
94 | GCCUAAUGCCAACUCACAATT against Samd7 | inactive: -1.49
95 | GGCAUUUAUUACUACCUGATT against Lancl1 | inactive: 0.754
96 | GGGAACCAUGAACAAUGUGTT against Shisa2 | inactive: 1.66
97 | GAUGCACACGUGGGAAGACTT against Cdpf1 | active: 2.25
98 | CCAGAGAGGUUUAUAAGUCTT against Zfp655 | inactive: 0.317
99 | CCCAAGUGCUAACCUAAUATT against Mtfp1 | inactive: 0.218
100 | GGAGUACAUGACCACAGAUTT against Lncpint | active: -2.06
101 | GCUGGUAUCAGGAAUACCUTT against Cacna1e | inactive: 0.497
102 | GGUUGGCUUCCUUAUCUUGTT against Cyp7b1 | inactive: -1.02
103 | GGAAACCCACAAAAAACAATT against Klhl26 | inactive: 0.269
104 | GGAAGGACAGCCUUUUGAUTT against Cyp2j13 | inactive: 0.0584
105 | CGACCAAUUAUAGUUUAUGTT against Zranb1 | inactive: 0.806
106 | GGAAGAAUACCAAAAGGUUTT against Msra | inactive: -1.88
107 | GGAAGUGACAGCUUUCGUCTT against Tmbim1 | inactive: 0.0257

Reformatted in markdown: entries from further up

| Row | Sequence | z-score |
| --- | --- | --- |
| 92 | GCAGAGCGGGAUUUCAUUCTT against Sh3glb2 | inactive: -1.23 |
| 93 | GGAAGAGAGGGUGAAUAUGTT against Tmem41b | active: -2.56 |
